# Data: PubChem BioAssay AID2685 (National Center for Advancing Translational Sciences (NCATS), 2010)
# The other results are listed elsewhere or left out. These are further read-outs of the screen, such as a control signal, another cell line or another target. No call is given for them. The list favours compounds with an active or inconclusive main result. Words in brackets tell the shape of the fitted curve; partial curves, single points and poor fits give uncertain potencies.
# Experiment: qHTS Assay for Lipid Storage Modulators in Drosophila S3 Cells;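 for cell number change: cells counted by Cell Tracker Red CMTPX staining in the red channel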
# Conditions: BODIPY lipid droplet fluorescence, 18-24 h
# Procedure, shortened: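 Laser-scanning cytometry quantifies lipid droplet accumulation (500–530 nm total intensity; droplet/cell object ratio) in oleic acid-fed (400 uM added) Drosophila S3 cells treated with a concentration series. 20 uM Triacsin C defined 100% inhibition.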
compound,measurement,setting,value
CCOc1cc(/C=C2/C(=N)N3C(=NC2=O)SN=C3S(C)(=O)=O)ccc1OS(=O)(=O)c1ccccc1,cell number change,"measured here: cell count max response, cells fed with added oleic acid",-30.2%
same,AC50,"measured here: cell number channel AC50, cells fed with added oleic acid","29.1 µM [falling, single point]"
same,AC50,"measured here: lipid fluorescence (Fed channel) AC50, cells fed with added oleic acid","6.51 µM [falling, single point]"
